We go through two substances from PMC3041725.

Chains of the proteins cited; added tags and fusions are not shown.
UniProt P29555: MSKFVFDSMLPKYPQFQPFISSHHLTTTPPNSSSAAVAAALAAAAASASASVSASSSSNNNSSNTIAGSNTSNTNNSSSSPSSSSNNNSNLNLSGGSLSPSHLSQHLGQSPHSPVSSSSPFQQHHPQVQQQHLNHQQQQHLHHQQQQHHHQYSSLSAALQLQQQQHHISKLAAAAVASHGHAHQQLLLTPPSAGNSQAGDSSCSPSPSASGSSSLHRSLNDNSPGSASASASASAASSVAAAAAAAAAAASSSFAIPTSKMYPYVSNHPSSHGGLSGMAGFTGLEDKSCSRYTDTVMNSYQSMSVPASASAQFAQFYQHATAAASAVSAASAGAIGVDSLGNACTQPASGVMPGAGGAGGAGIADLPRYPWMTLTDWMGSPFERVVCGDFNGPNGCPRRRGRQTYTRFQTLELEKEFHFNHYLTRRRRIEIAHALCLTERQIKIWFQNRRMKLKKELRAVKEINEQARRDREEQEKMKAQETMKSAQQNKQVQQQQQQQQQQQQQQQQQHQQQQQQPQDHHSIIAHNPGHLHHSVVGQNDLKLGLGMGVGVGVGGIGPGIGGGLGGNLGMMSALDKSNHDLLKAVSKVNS
UniProt P83949: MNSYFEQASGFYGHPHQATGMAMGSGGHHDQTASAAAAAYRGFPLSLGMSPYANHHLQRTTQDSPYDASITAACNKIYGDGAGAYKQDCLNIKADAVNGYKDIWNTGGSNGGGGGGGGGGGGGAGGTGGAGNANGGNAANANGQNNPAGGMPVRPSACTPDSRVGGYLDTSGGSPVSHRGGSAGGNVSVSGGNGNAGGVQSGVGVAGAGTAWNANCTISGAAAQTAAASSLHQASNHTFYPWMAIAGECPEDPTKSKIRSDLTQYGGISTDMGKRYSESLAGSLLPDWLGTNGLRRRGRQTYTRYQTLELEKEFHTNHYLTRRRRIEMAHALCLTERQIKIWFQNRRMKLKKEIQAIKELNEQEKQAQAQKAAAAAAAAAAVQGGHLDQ

Assay [1] addresses VC-AbdA fusion protein, expressed in Drosophila embryos (Drosophila melanogaster) (UniProt P29555). Kind of assay: split reporter; competition against split Venus BiFC in living Drosophila embryos: an unfused ('cold') protein co-expressed with the two fusion proteins.
In assay [2] the target is T1, Exd-VC fusion protein, expressed in Drosophila embryos (Drosophila melanogaster) (UniProt P40427).
T1 sequence: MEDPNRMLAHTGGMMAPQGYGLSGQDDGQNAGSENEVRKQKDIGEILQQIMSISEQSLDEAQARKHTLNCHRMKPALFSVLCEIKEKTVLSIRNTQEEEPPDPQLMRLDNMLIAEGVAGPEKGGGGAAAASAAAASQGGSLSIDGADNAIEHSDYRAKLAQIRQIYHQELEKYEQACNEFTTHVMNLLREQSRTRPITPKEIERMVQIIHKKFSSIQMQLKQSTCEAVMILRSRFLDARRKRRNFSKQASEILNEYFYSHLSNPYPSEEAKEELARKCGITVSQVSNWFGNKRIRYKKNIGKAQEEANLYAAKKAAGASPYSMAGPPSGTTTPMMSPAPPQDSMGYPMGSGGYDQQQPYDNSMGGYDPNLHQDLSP
Kind of assay: split reporter; split Venus (VN 1-173, VC 155-238) BiFC in living Drosophila embryos; fusion proteins expressed by UAS/Gal4 (abdA-Gal4, en-Gal4, btl-Gal4 and others); embryos kept at 4°C for 28 h before confocal imaging.

In assay [3] the target is VC-AbdA fusion protein, expressed in Drosophila embryos (Drosophila melanogaster) (UniProt P29555). The assay is described as above.
For assay [4], the target named is CC-Exd fusion protein (C-terminal fragment of Cerulean fused to Exd), expressed in Drosophila embryos (Drosophila melanogaster) (UniProt P40427). Kind of assay: split reporter; BiFC with split mCherry or split Cerulean fragments (abdA-Gal4) and multicolour BiFC with VN, CN and CC fusions (en-Gal4) in living Drosophila embryos; 28 h at 4°C; AxioImagerZ1 microscope with specific filters.

These are yes or no findings as the source states them, for the method shown. Binding seen in cells or lysates may run through a third protein. Some entries that bind do so weakly or less than the wild type. For some assays here: Where a sequence is shown, tags or fusion partners need not be part of it.

As to “VN-AbdA fusion protein, expressed in Drosophila embryos (from UniProt P29555 1-590)”, the binding entry in assay [1] is recorded as “binds”; in assay [2] it was “binds weakly”; in assay [3], “binds”.

Take “VN-Ubx fusion protein, expressed in Drosophila embryos (from UniProt P83949 1-389)”: the binding result in assay [4] and in assay [3] was “binds” throughout.
